Assay [1] has as its target GSK-3β, endogenous (mouse (endogenous in MC38 and CT26)) (UniProt Q9WV60). The assay can be described thus: co-IP; endogenous proteins; lysates from MC38 and CT26 immunoprecipitated with 1 ug of mouse anti-STRAP or rabbit anti-GSK-3β antibody or corresponding IgG (negative control); detection by western blotting. (In general: A western blot detects proteins with antibodies after separation by electrophoresis.)

Protein sequences, listed by entry. Tags and fused reporters are not part of them.
UniProt Q9WV60: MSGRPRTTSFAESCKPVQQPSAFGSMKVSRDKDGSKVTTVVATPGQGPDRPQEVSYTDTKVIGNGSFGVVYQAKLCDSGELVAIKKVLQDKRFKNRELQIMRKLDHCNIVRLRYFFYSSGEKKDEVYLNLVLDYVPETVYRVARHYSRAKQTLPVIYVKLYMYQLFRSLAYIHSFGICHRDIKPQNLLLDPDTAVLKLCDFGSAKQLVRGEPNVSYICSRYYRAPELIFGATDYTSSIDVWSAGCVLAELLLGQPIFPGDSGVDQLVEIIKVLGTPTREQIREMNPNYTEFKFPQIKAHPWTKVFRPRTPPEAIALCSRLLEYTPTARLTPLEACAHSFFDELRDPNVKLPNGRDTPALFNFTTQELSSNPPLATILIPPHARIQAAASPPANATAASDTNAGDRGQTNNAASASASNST
UniProt P49841: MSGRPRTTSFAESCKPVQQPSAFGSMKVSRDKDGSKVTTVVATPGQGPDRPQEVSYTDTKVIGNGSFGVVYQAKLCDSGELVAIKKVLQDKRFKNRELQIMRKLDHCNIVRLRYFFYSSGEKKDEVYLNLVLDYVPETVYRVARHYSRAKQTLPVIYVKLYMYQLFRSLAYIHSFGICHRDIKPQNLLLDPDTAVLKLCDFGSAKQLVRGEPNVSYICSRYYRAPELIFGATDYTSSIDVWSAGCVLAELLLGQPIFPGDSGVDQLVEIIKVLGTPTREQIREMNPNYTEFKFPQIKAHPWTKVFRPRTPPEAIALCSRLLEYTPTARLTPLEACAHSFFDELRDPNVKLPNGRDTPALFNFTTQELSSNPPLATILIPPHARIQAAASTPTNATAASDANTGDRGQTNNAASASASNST

The next assay concerns the target Myc-tagged GSK-3β (UniProt P49841). The assay can be described thus: co-IP; 293T cells transfected with β-catenin-HA, GSK-3β-myc and different doses of STRAP-Flag plasmids; harvested after 48 h; lysates immunoprecipitated with c-myc antibody, bound β-catenin detected by western blotting with anti-HA antibody.

No constants are given. Whether binding was seen depends on the method and setting. Binding seen in cells or lysates may run through a third protein. Some entries that bind do so weakly or less than the wild type. For some assays here: Where a sequence is shown, tags or fusion partners need not be part of it.

B1: Serine-Threonine Kinase Receptor-Associated Protein (STRAP), endogenous (protein, UniProt Q9Z1Z2 1-350)
chain: MAMRQTPLTCSGHTRPVVDLAFSGITPYGYFLISACKDGKPMLRQGDTGDWIGTFLGHKGAVWGATLNKDATKAATAAADFTAKVWDAVSGDELMTLAHKHIVKTVDFTQDSNYLLTGGQDKLLRIYDLNKPEAEPKEISGHTSGIKKALWCSDDKQILSADDKTVRLWDHATMTEVKSLNFNMSVSSMEYIPEGEILVITYGRSIAFHSAVSLEPIKSFEAPATINSASLHPEKEFLVAGGEDFKLYKYDYNSGEELESYKGHFGPIHCVRFSPDGELYASGSEDGTLRLWQTVVGKTYGLWKCVLPEEDSGELAKPKIGFPETAEEELEEIASENSDSIYSSTPEVKA
In the case of B1, the binding result in assay [1] was “binds”.

B2: Flag-tagged STRAP (protein, UniProt Q9Z1Z2 1-350)
chain: B1 chain
Take B2: in the assay with Myc-tagged GSK-3β, the binding entry was “binds”.

The values above are taken from article PMC4941295.
